Results taken from US20230322924A1.
Results are given in words; binding and its absence hold for the method and conditions named. Some entries that bind do so weakly or less than the wild type.

Chains of the proteins cited; added tags and fusions are not shown. Lines headed by an entry give the natural chain unless they say otherwise; changes in a name come on top. Residues count along the entry.
UniProt P20138: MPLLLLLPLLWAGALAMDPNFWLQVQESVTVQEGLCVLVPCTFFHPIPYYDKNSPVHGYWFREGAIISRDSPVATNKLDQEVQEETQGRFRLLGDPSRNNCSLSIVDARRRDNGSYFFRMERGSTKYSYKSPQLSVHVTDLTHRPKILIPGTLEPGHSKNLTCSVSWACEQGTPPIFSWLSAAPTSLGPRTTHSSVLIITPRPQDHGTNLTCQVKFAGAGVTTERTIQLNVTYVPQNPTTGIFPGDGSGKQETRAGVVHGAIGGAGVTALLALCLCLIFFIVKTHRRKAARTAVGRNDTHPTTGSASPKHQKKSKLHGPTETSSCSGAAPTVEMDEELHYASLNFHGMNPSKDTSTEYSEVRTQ
UniProt P07766: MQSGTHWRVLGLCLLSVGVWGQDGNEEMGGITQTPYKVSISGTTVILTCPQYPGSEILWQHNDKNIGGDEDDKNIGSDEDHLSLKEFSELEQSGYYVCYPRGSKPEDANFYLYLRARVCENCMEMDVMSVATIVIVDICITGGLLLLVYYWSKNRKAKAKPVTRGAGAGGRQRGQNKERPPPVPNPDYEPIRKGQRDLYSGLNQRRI
UniProt Q95LI5, residues 22-198: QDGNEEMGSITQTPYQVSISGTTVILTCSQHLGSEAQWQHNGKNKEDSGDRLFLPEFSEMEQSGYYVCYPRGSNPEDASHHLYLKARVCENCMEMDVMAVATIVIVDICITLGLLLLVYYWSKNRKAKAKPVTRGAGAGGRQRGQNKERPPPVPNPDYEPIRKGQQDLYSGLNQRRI
UniProt Q04609: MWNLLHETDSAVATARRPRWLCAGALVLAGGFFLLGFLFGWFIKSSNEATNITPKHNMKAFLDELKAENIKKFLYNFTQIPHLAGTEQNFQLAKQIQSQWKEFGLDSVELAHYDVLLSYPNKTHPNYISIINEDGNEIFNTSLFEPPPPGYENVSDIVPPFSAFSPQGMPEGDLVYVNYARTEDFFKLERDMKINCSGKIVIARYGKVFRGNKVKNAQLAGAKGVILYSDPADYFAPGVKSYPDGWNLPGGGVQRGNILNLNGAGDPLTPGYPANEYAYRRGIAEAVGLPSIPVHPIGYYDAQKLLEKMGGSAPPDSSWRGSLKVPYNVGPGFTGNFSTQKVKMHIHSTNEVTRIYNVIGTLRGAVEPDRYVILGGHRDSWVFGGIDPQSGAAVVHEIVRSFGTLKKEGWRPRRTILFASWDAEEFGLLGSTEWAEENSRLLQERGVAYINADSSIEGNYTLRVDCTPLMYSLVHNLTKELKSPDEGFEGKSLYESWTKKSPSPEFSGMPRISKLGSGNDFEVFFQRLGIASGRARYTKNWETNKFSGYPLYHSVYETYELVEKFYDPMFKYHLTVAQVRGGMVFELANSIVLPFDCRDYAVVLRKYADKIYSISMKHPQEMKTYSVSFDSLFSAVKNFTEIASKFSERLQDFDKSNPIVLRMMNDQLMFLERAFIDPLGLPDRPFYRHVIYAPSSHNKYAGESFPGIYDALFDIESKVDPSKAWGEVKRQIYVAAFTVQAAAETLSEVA

Key:
[1] = target: chimpanzee PSMA on HEK cells (chimpanzee) (UniProt H2Q3K5); experiment: flow cytometry, Fab supernatant titration
[2] = target: chimpanzee PSMA on HEK cells (chimpanzee) (UniProt H2Q3K5); experiment: flow cytometry, mammalian Fab supernatant
[3] = target: chimpanzee PSMA on HEK cells (chimpanzee) (UniProt H2Q3K5); experiment: flow cytometry, mammalian Fab supernatant on chimp-PSMA HEK cells (PSMG9), anti-human kappa-RPE
[4] = target: human CD33, full length, on cells (human) (UniProt P20138); experiment: flow cytometry on CD33 expressing HEK293F cells
[5] = target: human CD3 on human T cells (human) (UniProt P07766); experiment: flow cytometry, primary human T cells [upper left panel]
[6] = target: cynomolgus CD3 on cynomolgus T cells (cynomolgus) (UniProt Q95LI5); experiment: cynomolgus T cells, plate-coated antibody, CD69 read-out
[7] = target: human CD3 on human T cells (human) (UniProt P07766); experiment: flow cytometry on primary human T cells
[8] = target: human CD3 on human T cells (human) (UniProt P07766); experiment: competition with AF488 SP34-2 on human T cells, flow cytometry
[9] = target: human CD3 on human T cells (human) (UniProt P07766); experiment: flow cytometry competition on purified human T cells; competitor 2 ug/mL AF488-labelled SP34-2
[10] = target: human CD3 on human T cells (human) (UniProt P07766); experiment: flow cytometry competition on primary human T cells; competitor AlexaFluor 488 SP34-2 [left panel]
[11] = target: cynomolgus CD3 on cynomolgus T cells (cynomolgus) (UniProt Q95LI5); experiment: flow cytometry, purified cynomolgus CD3+ T lymphocytes, AF647 secondary antibody
[12] = target: human CD3 on human T cells (human) (UniProt P07766); experiment: flow cytometry, purified human CD3+ T lymphocytes, AF647 secondary antibody
[13] = target: human PSMA on cells (LNCaP) (human) (UniProt Q04609); experiment: flow cytometry, Fab supernatant titration
[14] = target: human PSMA on cells (LNCaP) (human) (UniProt Q04609); experiment: flow cytometry, mammalian Fab supernatant on LNCaP cells, anti-human kappa-RPE

binding [5]	binding [6]	binding [7]	binding [8]	binding [9]	binding [10]	Binder	also measured
						PSMM56 (Fab, V domains shown) VH: EVQLVQSGAEVKKPGESLKISCKGSGYSFTSYWIGWVRQMPGKGLEWMGIIYPGDSDTRYSPSFQGQVTISADKSISTAYLQWSSLKASDTAMYYCARGLPIWYLDYWGQGTLVTVSS VL: EIVLTQSPATLSLSPGERATLSCRASQSVASDLAWYQQKPGQAPRLLIYFASNRATGIPARFSGSGSGTDFTLTISSLEPEDFAVYYCQQSITWPFTFGQGTKVEIK	binding [1]: binds; binding [2]: binds; binding [3]: binds
						C33B914 (antibody, V domains shown) VH: QVQLVESGGGVVQPGRSLRLSCAASGFTFSYYGMHWVRQAPDKGLEWVAVIWFDGNNKYYADSVKGRFTISRDNSKNTLYLQMNSLRAEDTAVYYCARDRELLFDYWGQGTLVTVSS VL: SYELTQPPSVSVSPGQTASITCSGDELGDMYACWYQQKPGQSPLVVIYQDSKRPSGIPERFSGSNSGNTATLTISGTQAMDEAAYYCQTWDTRIAVFGGGTNLTVL	binding [4]: binds
						C33B916 (antibody, V domains shown) VH: QVQLVESGGGVVQPGRSLRLSCATSGFTFSNYGMHWVRQAPGKGLEWVAVIWYVGSHKYYADSVKGRFTISRDNSKNTLYLQMNSLRAEDTAVYYCARDGSLCFDYWGQGTLVTVSS VL: SYELTQPPSVSVSPGQTANISCSGVTLGYNYAYWYQQKPGQSPILVISQDTQRPSGIPERFSGSNSGNTATLTISGTQAMDEAAYYCQAWDITTVLFGGGTKLTVL	binding [4]: binds
						C33B915 (antibody, V domains shown) VH: EVQLVESGGGLVQPGRSLRLSCAASGFTFDDYAMHWVRQVPGEGLEWVSGISWNGGDMVYADSVKGRFTISRDNAKNSLYLQMNSLRPEDTALYYCVKDMPYFDFLTGSDYYYYGMDVWGQGTTVTVSS VL: SYELTQPPSVSVSPGQTASITCSGDNLGNEHVCWYHQKPGQSPVLVIYQNNKRPSGIPERFSGSNSGNTATLSISGTQATDEADYYCQAWDSTTAVFGGGTKLTVL	binding [4]: binds
binds	binds	binds	binds	binds	binds	BLW-2B4 (antibody, V domains shown) VH: QVQLQQSGPGLVKPSQTLSLTCAISGDSVFNNNAAWSWIRQSPSRGLEWLGRTYYRSKWLYDYAVSVKSRITVNPDTSRNQFTLQLNSVTPEDTALYYCVRGYSSSFDYWGQGTLVTVSS VL: QSALTQPASVSGSPGQSITISCTGTSRDIGTYKFVSWYQQHPDKAPKVLLYEVNKRPSGVSSRFSGSKSGNTASLTISGLQAEDQADYHCCSYAGSGTLLFGGGTKLTVL	
binds		binds	binds	binds	binds	BLX-1F8 (antibody, V domains shown) VH: QVQLQQSGPGLVKPSQTLSLTCAISGDSVFNNNAAWSWIRQSPSRGLEWLGRTYYRSKWLYDYAVSVKSRITVNPDTSRNQFTLQLKSVTPEDTALYYCSRGYSSSFDYWGQGTLVTVSS VL: QSALTQPASVSGSPGQSITISCTGTSSDIGTYKFVSWYQQHPDKAPKVLLYEVSKRPSGVSSRFSGSKSDNTASLTISGLQAEDQADYHCCSYAGSGTLLFGGGTKLTVL	
	binds					BLX-2E9 (antibody, V domains shown) VH: QVQLQQSGPGLVKPSQTLSLTCAISGDSVFNNNGAWSWIRQSPSRGLEWLGRTYYRSKWLYDYAVSVKSRITVNPDTSRNQFTLQLNSVTPEDTALYYCARGYSSSFDYWGQGTLVTVSS VL: QSALTQPASVSGSPGQSITISCTGTSSNIGTYKFVSWYQQHPDKAPKVLLYEVSKRPSGVSSRFSGSKSGNTASLTISGLQAEDQADYHCCSYAGSGTLLFGGGTKLTVL	binding [11]: binds
	binds					BLX-3F4 (antibody, V domains shown) VH: QVRLQQSGPGLVKPSQTLSLTCAISGDSVFNNNAAWSWIRQSPSRGLEWLGRTYYRSKWLYDYAVTVKSRITVNPDTSRNQFTLQLTSVTPEDTALYYCARGYSSSFDYWGQGTLVTVSS VL: QSALTQPASVSGSPGQSITISCTGTSSNIGTYKFVSWYQQHPDKAPKVLLYEVSKRPSGVSSRFSGSKSGNTASLTISGLQAEDQADYHCCSYAGSGTLLFGGGTKLTVL	
binds	binds	binds	binds	binds	binds	BLW-3B4 (antibody, V domains shown) VH: QVQLQQSGPGLVKPSQTLSLTCAISGDSVFNNNAAWSWIRQSPSRGLEWLGRTYYRSKWLYDYAVSVKSRITVNPDTSRNQFTLQLNSVTPEDTALYYCVRGYSSSFDYWGQGTLVTVSS VL: QSALTQPASVSGSPGQSITISCTGTSRDIGTYKFVSWYQQHPDKAPKVLLYEVSKRPSGVSSRFSGSKSGNTASLTISGLQAEDQADYHCCSYAGSGTLLFGGGTKLTVL	binding [11]: binds; binding [12]: binds
binds	binds	binds	binds	binds	binds	BLX-3G8 (antibody, V domains shown) VH: QVQLQQSGPGLVKPSQTLSLTCAISGDSVFNNNAAWTWIRQSPSRGLEWLGRTYYRSKWLYDYAVSVKSRITVNPDTSRNQFTLQLKSVTPEDTALYYCSRGYSSSFDYWGQGTLVTVSS VL: QSALTQPASVSGSPGQSITISCTGTSSNIGTYKFVSWYQQHPDKAPKVLLYEVSKRPSGVSSRFSGSKSGNTASLTISGLQAEDQADYHCCSYAGSGTLLFGGGTKLTVL	binding [11]: binds; binding [12]: binds
						PSMM110 (Fab, V domains shown) VH: QVQLVQSGAEVKKPGSSVKVSCKASGGTFSSYAISWVRQAPGQGLEWMGWISPYNGNANYAQKFQGRVTITADESTSTAYMELSSLRSEDTAVYYCARVNSAALVWERLDYWGQGTLVTVSS VL: DIQMTQSPSSLSASVGDRVTITCRASQSIDRWLNWYQQKPGKAPKLLIYAASSLQSGVPSRFSGSGSGTDFTLTISSLQPEDFATYYCQQSPRYPLTFGQGTKVEIK	binding [1]: binds; binding [13]: binds; binding [14]: binds; binding [3]: binds
						PSMM52 (Fab, V domains shown) VH: QVQLVQSGAEVKKPGSSVKVSCKASGGTFSSYAISWVRQAPGQGLEWMGWIIPYNGNANYAQKFQGRVTITADESTSTAYMELSSLRSEDTAVYYCARVNSAALVWERLDYWGQGTLVTVSS VL: DIQMTQSPSSLSASVGDRVTITCRASQSIDRWLNWYQQKPGKAPKLLIYAASSLQSGVPSRFSGSGSGTDFTLTISSLQPEDFATYYCQQSPRYPLTFGQGTKVEIK	binding [1]: binds; binding [2]: binds; binding [3]: binds
